These results are taken from article doi:10.1101/828426.

Sequences of proteins named here, by UniProt entry; tags and fusion partners are left off. A change or cut given only in a name is not applied to a line headed by its entry. Residues count along the entry.
UniProt P15116, 160-906: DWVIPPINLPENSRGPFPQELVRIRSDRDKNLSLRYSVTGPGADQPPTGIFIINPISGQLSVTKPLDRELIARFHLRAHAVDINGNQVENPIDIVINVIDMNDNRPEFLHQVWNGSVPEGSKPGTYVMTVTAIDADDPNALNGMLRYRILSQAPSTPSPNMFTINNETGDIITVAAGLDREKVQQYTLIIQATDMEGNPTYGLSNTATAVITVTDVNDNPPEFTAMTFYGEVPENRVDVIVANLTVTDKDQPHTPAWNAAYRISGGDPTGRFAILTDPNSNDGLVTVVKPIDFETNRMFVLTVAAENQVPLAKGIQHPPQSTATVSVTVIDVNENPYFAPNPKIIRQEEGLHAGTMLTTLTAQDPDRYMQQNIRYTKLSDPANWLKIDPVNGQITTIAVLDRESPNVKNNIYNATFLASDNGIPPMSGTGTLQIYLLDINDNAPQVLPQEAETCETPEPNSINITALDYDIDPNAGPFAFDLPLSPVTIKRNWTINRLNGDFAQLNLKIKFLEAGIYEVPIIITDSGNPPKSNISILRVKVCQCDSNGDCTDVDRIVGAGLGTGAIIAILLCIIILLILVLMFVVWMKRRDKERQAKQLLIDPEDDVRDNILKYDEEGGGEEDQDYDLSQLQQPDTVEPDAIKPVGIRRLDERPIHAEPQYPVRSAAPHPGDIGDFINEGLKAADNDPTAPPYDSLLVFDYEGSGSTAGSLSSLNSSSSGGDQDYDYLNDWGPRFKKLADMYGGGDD
UniProt P15116, whole entry, looked up, stated change not applied: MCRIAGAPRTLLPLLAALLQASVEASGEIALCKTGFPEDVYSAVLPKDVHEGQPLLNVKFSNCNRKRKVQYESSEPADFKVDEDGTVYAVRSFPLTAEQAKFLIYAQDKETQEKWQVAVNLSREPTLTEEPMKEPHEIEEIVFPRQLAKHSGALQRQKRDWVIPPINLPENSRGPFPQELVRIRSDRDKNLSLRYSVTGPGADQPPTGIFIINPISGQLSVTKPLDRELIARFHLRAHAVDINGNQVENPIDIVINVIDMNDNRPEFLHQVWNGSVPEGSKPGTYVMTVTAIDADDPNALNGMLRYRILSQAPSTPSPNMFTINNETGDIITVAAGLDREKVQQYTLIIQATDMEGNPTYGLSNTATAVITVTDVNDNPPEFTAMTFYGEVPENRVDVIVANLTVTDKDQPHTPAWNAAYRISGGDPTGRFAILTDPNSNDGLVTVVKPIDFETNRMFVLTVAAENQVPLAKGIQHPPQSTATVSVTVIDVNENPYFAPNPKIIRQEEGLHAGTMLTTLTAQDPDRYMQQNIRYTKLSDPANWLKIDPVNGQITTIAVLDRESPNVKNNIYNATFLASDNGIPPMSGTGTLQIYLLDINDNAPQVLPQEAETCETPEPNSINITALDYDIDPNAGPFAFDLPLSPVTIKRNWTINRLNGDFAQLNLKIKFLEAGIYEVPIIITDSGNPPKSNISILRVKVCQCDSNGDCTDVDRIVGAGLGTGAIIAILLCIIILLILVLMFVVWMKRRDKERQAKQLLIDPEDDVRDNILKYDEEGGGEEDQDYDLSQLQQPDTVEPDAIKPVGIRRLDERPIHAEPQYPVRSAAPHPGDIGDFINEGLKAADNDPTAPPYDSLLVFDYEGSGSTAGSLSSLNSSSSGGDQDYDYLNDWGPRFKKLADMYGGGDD

These are yes or no findings as the source states them, for the method shown. In cells and extracts the contact can be indirect. Some results given as binding are weak or reduced against the parent protein; the word gives no strength.

Test in all cases: co-IP
The target of one assay is T1, T7-Fbxo45 (murine) (UniProt Q8K3B1).
T1 sequence: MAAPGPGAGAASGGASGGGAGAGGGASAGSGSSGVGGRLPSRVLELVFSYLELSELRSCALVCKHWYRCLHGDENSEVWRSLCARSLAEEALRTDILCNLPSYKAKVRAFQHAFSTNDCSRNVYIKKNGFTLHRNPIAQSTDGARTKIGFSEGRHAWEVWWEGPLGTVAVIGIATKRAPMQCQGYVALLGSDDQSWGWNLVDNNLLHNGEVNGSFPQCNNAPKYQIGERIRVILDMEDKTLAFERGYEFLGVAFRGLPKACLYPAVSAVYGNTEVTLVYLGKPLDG

The next assay concerns the target T2, Fbxo45 Δ225-229 (murine) (UniProt Q8K3B1).
T2 sequence: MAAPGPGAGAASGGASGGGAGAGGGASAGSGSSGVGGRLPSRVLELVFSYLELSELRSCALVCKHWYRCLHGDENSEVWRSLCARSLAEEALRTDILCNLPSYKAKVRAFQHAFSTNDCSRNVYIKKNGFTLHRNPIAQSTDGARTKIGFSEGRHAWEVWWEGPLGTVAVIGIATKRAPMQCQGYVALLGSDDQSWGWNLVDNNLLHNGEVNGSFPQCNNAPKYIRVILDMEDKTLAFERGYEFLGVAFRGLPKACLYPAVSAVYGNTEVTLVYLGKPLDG

In assay [1] the target is T3, Fbxo45 mutant 276 (murine) (UniProt Q8K3B1).
T3 sequence: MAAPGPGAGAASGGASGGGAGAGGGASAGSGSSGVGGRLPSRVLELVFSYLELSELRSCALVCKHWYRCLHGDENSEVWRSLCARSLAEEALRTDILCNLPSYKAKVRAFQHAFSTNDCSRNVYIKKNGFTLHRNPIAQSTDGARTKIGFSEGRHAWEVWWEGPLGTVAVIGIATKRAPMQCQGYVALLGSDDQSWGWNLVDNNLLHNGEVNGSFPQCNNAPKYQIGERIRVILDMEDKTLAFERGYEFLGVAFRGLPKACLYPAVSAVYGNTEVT

For NC1 (from UniProt P15116 160-906), the binding result in the assay with T7-Fbxo45 (murine) is given as “binds weakly”. For the substance NC12 (from UniProt P15116 160-906), the binding result with T7-Fbxo45 (murine) was “no binding”. The same measure, in the same setting: to NC123 (from UniProt P15116 160-906) belongs “no binding”. For the substance NCad-HA (from UniProt P15116 160-906), the binding result is recorded as “binds” with T7-Fbxo45 (murine), “no binding” in the assay with Fbxo45 Δ225-229 (murine) and “no binding” in assay [1].
